The other results are listed elsewhere or left out.

By UniProt entry, the sequences of proteins in these tests, tags left out. Where a name states a change or a piece, a line headed by the entry shows the natural chain unless it says otherwise.
UniProt Q14696: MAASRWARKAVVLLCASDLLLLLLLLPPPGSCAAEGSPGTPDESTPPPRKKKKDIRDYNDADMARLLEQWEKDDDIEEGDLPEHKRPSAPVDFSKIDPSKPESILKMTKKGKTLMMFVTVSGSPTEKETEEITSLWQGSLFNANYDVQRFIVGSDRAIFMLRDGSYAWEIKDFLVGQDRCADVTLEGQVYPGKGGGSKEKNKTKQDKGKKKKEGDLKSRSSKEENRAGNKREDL
UniProt Q9H8H3: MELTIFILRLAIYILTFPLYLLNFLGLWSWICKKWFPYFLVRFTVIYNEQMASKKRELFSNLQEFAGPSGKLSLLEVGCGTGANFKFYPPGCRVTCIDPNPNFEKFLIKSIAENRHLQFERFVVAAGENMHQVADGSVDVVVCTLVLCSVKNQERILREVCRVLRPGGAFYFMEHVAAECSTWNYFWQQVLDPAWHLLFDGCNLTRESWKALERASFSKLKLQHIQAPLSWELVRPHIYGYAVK
UniProt Q9NRN9: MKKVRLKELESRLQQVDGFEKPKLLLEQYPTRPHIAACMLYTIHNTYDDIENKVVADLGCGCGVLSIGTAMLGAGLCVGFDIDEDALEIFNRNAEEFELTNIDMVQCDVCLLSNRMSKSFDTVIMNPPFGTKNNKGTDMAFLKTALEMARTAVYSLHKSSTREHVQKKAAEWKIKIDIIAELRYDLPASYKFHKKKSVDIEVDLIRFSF
UniProt Q8WXB1: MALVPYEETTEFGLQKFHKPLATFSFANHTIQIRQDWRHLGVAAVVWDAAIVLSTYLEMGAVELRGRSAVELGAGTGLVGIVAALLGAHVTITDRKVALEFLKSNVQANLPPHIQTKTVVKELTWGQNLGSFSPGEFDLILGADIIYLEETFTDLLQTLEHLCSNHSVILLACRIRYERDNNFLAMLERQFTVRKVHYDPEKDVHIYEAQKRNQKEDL
UniProt P25205: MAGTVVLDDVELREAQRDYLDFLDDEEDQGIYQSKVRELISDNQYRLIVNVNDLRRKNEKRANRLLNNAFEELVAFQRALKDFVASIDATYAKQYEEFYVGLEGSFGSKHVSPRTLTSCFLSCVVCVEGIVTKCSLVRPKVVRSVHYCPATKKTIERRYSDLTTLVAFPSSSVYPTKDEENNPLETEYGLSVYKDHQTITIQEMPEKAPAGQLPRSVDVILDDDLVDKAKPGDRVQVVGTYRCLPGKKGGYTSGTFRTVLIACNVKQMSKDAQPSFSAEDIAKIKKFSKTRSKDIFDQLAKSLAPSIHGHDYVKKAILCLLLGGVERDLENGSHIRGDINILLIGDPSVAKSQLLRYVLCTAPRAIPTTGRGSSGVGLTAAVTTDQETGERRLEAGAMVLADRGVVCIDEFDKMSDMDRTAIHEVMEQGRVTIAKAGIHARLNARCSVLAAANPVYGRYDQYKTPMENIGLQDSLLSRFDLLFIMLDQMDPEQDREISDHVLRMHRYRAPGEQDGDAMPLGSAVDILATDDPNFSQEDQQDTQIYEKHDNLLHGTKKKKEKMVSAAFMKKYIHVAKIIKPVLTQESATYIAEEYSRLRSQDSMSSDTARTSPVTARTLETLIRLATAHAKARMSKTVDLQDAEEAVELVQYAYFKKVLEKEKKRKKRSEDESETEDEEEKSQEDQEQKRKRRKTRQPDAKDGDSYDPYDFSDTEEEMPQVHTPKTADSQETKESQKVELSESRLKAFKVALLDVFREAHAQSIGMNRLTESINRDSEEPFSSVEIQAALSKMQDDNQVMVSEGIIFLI
UniProt O60244: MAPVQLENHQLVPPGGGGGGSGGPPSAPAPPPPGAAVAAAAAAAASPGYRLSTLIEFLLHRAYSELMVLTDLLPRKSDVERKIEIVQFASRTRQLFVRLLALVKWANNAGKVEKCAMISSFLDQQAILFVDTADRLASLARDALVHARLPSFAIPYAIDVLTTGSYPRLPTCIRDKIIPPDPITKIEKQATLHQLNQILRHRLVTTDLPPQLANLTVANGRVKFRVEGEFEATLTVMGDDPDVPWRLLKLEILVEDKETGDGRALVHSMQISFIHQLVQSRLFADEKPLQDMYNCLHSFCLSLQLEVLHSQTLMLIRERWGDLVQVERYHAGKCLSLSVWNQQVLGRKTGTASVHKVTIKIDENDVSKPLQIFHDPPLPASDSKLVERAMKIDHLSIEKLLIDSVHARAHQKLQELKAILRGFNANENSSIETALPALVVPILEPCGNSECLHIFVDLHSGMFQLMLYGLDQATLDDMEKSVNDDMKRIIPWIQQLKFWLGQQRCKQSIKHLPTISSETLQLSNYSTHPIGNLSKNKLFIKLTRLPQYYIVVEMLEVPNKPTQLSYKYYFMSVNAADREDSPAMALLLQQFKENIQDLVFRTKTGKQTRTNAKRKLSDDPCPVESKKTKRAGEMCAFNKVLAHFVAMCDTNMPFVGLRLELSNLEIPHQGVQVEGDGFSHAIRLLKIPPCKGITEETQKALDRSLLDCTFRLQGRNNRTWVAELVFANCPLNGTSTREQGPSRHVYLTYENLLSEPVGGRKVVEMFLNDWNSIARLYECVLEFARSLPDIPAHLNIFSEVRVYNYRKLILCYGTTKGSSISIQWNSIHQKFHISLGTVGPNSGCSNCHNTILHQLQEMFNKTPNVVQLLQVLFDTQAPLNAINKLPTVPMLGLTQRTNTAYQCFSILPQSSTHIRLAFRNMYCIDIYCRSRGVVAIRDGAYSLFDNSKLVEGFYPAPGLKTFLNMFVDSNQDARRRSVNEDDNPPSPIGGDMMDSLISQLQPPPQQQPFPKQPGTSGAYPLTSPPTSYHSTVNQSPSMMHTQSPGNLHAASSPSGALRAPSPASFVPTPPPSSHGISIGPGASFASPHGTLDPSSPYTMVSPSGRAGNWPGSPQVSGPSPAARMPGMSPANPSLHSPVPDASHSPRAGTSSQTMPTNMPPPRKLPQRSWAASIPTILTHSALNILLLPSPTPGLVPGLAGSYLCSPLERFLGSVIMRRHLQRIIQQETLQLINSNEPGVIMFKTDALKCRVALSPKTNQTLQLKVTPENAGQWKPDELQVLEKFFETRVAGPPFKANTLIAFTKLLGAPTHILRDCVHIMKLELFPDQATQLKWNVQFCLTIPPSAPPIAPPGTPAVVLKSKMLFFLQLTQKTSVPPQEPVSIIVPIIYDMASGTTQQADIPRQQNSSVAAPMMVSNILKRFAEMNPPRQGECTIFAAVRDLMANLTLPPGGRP
UniProt Q14728: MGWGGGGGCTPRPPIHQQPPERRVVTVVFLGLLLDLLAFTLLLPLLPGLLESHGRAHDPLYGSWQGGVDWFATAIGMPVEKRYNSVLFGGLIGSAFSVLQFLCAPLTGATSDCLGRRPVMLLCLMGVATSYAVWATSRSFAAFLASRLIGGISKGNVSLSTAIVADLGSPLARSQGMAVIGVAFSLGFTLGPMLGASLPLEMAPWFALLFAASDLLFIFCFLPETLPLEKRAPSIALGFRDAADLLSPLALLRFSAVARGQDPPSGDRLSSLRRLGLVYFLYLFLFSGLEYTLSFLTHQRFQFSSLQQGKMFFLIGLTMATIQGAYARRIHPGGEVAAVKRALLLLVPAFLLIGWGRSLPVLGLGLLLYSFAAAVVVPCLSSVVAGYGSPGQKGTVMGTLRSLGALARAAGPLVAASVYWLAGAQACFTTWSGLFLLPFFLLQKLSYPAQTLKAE
UniProt Q5SR56: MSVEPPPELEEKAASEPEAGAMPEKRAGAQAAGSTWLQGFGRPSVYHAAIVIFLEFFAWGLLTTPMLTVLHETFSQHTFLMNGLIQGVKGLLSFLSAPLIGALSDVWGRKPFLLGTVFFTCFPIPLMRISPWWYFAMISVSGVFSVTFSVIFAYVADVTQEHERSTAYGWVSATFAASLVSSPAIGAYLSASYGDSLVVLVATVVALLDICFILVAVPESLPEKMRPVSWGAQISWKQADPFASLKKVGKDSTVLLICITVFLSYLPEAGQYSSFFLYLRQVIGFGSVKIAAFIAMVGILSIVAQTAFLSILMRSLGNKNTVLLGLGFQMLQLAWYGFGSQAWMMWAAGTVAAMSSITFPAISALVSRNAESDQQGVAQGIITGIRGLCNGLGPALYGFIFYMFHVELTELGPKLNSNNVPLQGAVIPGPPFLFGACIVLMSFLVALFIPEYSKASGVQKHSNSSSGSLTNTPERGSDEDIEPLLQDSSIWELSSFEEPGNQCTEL
UniProt O95983: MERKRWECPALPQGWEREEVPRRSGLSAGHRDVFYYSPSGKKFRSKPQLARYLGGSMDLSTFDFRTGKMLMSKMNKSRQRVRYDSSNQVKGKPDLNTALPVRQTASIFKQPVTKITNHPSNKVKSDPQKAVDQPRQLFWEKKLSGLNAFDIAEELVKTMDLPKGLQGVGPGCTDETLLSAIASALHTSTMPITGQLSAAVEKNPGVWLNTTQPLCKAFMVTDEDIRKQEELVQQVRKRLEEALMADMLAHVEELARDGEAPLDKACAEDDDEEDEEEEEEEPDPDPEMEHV
UniProt Q14814: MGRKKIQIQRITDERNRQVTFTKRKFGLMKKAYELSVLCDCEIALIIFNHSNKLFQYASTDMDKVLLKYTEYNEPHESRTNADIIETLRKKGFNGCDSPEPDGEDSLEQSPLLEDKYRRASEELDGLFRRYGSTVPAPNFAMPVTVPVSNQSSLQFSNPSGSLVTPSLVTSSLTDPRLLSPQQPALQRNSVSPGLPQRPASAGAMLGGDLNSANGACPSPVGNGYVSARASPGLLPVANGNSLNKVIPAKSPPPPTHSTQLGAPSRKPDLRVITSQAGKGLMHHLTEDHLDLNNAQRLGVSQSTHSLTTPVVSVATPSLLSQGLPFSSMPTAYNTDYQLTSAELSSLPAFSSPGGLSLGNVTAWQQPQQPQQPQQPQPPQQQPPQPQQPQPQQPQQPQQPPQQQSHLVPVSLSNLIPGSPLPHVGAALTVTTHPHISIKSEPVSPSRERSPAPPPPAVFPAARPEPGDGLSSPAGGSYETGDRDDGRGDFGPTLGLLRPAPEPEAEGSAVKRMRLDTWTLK
UniProt Q8N6Q8: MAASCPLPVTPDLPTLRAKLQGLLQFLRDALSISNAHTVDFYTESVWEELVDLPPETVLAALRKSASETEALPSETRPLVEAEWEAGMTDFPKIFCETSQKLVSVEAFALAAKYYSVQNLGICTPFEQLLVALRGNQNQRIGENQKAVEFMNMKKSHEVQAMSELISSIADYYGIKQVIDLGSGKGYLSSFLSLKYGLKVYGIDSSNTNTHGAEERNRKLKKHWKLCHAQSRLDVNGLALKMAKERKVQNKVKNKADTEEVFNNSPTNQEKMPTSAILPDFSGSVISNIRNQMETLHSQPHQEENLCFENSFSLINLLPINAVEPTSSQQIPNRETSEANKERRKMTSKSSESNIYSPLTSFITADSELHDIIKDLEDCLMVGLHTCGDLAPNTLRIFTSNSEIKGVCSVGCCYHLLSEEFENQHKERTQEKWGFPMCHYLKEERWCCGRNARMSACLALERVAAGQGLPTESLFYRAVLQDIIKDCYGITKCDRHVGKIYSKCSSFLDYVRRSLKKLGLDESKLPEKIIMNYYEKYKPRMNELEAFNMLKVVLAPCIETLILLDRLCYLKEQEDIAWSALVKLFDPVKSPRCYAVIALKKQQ
UniProt Q86YT6, whole entry, looked up: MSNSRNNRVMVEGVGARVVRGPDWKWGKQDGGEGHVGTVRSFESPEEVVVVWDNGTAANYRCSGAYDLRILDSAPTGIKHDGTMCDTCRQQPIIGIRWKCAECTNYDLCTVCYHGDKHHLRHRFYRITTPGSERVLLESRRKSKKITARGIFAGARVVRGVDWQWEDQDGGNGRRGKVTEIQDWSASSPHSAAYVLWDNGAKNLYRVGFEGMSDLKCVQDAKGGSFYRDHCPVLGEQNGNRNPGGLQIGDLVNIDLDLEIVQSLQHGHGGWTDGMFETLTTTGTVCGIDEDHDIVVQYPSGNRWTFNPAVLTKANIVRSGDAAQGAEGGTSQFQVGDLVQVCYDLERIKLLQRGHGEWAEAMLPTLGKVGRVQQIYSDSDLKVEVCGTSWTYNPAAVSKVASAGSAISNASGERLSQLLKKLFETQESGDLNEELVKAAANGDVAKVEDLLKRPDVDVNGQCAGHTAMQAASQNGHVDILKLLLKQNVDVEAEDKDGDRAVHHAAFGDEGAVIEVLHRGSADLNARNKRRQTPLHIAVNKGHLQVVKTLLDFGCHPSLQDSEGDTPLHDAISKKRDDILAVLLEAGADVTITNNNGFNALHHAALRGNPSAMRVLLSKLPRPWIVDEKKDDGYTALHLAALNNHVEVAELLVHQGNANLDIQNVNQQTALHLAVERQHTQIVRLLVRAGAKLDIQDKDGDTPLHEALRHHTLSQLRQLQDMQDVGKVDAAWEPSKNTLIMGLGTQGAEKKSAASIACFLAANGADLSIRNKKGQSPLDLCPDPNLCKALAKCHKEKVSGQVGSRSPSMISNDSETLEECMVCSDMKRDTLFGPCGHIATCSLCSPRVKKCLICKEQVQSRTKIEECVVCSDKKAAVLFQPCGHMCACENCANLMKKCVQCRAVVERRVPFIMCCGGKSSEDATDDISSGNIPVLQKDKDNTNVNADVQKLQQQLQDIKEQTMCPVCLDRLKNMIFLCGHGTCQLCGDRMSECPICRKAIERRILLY

Compound in the first assay: Cc1cc(SCc2sc(-c3ccc(C(F)(F)F)cc3)nc2C)ccc1OCC(=O)O
The assay can be described thus: log2 fold change, soluble protein after heating vs DMSO (PISA); higher = thermal stabilisation; K562 cells, 10 uM, 30 min; active = over 0.2 and 3.5 SD of the protein, either way, in both replicates (recomputed). The method, boiled down:
(§1)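 Quantification of soluble protein used TMTpro 16plex LC-MS/MS, with channel sums equalised. Samples were the supernatant after 21,000xg for 90 min of pooled aliquots from K562 cells (2×10^6 cells/mL) treated with 10 μM compound for 30 min, heated for 3 min over 48°C-58°C, and extracted in PBS with 0.5% NP-40 at 4°C. Values, from duplicates, describe thermal stability against control samples on a log2 fold-change scale.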
For MCM2 (UniProt P49736), the log2 fold change was inactive: 0.011. MESD (UniProt Q14696): the log2 fold change is inactive: -0.041. Still for that read-out and setting: the value for MCRIP1 (UniProt I3L4Q0) was inactive: -0.018. For the target MDN1 (UniProt Q9NU22), the log2 fold change was inactive: 0.063. Same read-out and setting: the value for MED23 (UniProt Q9ULK4) was inactive: 0.037. METTL7A (UniProt Q9H8H3): the log2 fold change was inactive: 0. For the target MCM5 (UniProt P33992), the log2 fold change was inactive: 0.006.

Take METTL5 (UniProt Q9NRN9): the log2 fold change was inactive: -0.022. As for MECR (UniProt Q9BV79), the log2 fold change was inactive: -0.024. Same read-out and setting: the value for METTL2B (UniProt Q6P1Q9) was inactive: 0.083; that for MBOAT1 (UniProt Q6ZNC8) was inactive: -0.036; that for MEF2C isoform 5 (UniProt Q06413) was inactive: -0.185. Consider MAT2B (UniProt Q9NZL9), for which the log2 fold change is inactive: -0.072.

For METTL21A (UniProt Q8WXB1), the log2 fold change is inactive: 0.03. For the target MERTK (UniProt Q12866), the log2 fold change is inactive: -0.174. For the target MCM3 isoform 2 (UniProt P25205), the log2 fold change is inactive: 0.018. For the target MCCC2 (UniProt Q9HCC0), the log2 fold change is inactive: -0.022. Still for that read-out and setting: the value for MED30 (UniProt Q96HR3) was inactive: 0.037; that for METTL6 (UniProt Q8TCB7) was inactive: -0.071; that for MED18 (UniProt Q9BUE0) was inactive: -0.003. MFAP1 (UniProt P55081): the log2 fold change was inactive: -0.081. On the same count and under the same terms, the value for MCCC1 (UniProt Q96RQ3) was inactive: 0.08; that for MGAT4B isoform 3 (UniProt Q9UQ53) was inactive: -0.037; that for MED14 (UniProt O60244) was inactive: 0.143.

As for MFSD10 (UniProt Q14728), the log2 fold change was inactive: 0.102.

For the target METAP1 (UniProt P53582), the log2 fold change is inactive: 0.026. As for MGST3 (UniProt O14880), the log2 fold change was inactive: -0.054. As to METAP2 (UniProt P50579), the log2 fold change was inactive: -0.021. Turning to MCRIP2 (UniProt Q9BUT9), the log2 fold change was inactive: 0.054. Turning to MBNL1 (UniProt Q9NR56), the log2 fold change is inactive: -0.061. In the case of MEAF6 isoform 3 (UniProt Q9HAF1), the log2 fold change is inactive: -0.048.

Take MFSD14B (UniProt Q5SR56): the log2 fold change is inactive: 0.051. As to MBD3 (UniProt O95983), the log2 fold change is inactive: -0.1. With MED15 (UniProt Q96RN5), the log2 fold change was inactive: 0.008.

Consider MED24 (UniProt O75448), for which the log2 fold change was inactive: -0.007. In the case of MEF2D (UniProt Q14814), the log2 fold change was inactive: 0.

Take METTL25 (UniProt Q8N6Q8): the log2 fold change is inactive: -0.074. MED10 (UniProt Q9BTT4): the log2 fold change was inactive: 0.098.

Compound in the next assay: Cc1ccc(-n2nc(C(C)(C)C)cc2NC(=O)Nc2ccc(OCCN3CCOCC3)c3ccccc23)cc1 [doramapimod]
Described as above. An outline of the steps: as §1
Take MIB1 (UniProt Q86YT6): the log2 fold change is inactive: 0.124. With MCM2 (UniProt P49736), the log2 fold change is inactive: 0.011. Turning to MESD (UniProt Q14696), the log2 fold change is inactive: 0.003. MCRIP1 (UniProt I3L4Q0): the log2 fold change is inactive: -0.014. As for MDN1 (UniProt Q9NU22), the log2 fold change is inactive: -0.005. In the case of MED23 (UniProt Q9ULK4), the log2 fold change is inactive: 0.07. As to METTL7A (UniProt Q9H8H3), the log2 fold change was inactive: -0.032. For MCM5 (UniProt P33992), the log2 fold change was inactive: -0.006. METTL5 (UniProt Q9NRN9): the log2 fold change was inactive: -0.015. For MECR (UniProt Q9BV79), the log2 fold change was inactive: 0.01. As to METTL2B (UniProt Q6P1Q9), the log2 fold change is inactive: 0.124.

As for MBOAT1 (UniProt Q6ZNC8), the log2 fold change is inactive: -0.029. Same read-out and setting: the value for MEF2C isoform 5 (UniProt Q06413) was inactive: -0.016; that for MAT2B (UniProt Q9NZL9) was inactive: 0.007. METTL21A (UniProt Q8WXB1): the log2 fold change is inactive: 0.029. For MCM3 isoform 2 (UniProt P25205), the log2 fold change is inactive: 0.012. On the same count and under the same terms, the value for MCCC2 (UniProt Q9HCC0) was inactive: 0; that for MED30 (UniProt Q96HR3) was inactive: -0.035. As for METTL6 (UniProt Q8TCB7), the log2 fold change was inactive: -0.136. Turning to MED18 (UniProt Q9BUE0), the log2 fold change was inactive: -0.055. Same read-out and setting: the value for MFAP1 (UniProt P55081) was inactive: -0.042; that for MCCC1 (UniProt Q96RQ3) was inactive: -0.038. MGAT4B isoform 3 (UniProt Q9UQ53): the log2 fold change was inactive: 0.042. Take MED14 (UniProt O60244): the log2 fold change is inactive: 0.005.

As for MFSD10 (UniProt Q14728), the log2 fold change is inactive: 0.059. As for METAP1 (UniProt P53582), the log2 fold change is inactive: -0.067.

Turning to MGST3 (UniProt O14880), the log2 fold change was inactive: -0.031. Turning to METAP2 (UniProt P50579), the log2 fold change is inactive: -0.038. On the same count and under the same terms, the value for MCRIP2 (UniProt Q9BUT9) was inactive: 0.067. On the same count and under the same terms, the value for MBNL1 (UniProt Q9NR56) was inactive: -0.079; that for MEAF6 isoform 3 (UniProt Q9HAF1) was inactive: 0.007. Consider MFSD14B (UniProt Q5SR56), for which the log2 fold change is inactive: -0.065. As to MBD3 (UniProt O95983), the log2 fold change was inactive: 0.038. Turning to MED15 (UniProt Q96RN5), the log2 fold change is inactive: 0.038. Turning to MED24 (UniProt O75448), the log2 fold change is inactive: 0.055.

For MEF2D (UniProt Q14814), the log2 fold change was inactive: -0.077.

Take METTL25 (UniProt Q8N6Q8): the log2 fold change was inactive: -0.065. As to MED10 (UniProt Q9BTT4), the log2 fold change was inactive: 0.102.

For the origin of these results see the supplement of paper PMC10849652.
